From PubChem BioAssay AID248 (DTP/NCI, 2004) come the findings set out here.

The list shows only some results of the screen, not a fair sample: it gathers tests that were run many times, whatever their T/C, doses with no T/C, and many T/C values between a quarter and a half above the control. Other doses and runs of a compound stand elsewhere. T/C is the treated group as % of the vehicle group. Some doses have a count of surviving animals in place of a T/C: the source holds a T/C of zero for them, seemingly a mark for toxic or unscored doses. Some doses without a T/C left all or most animals alive at the check, yet need not have been tolerated: survival well below the control is almost never listed, so the zero probably covers shortened survival too. Survivors were counted at the toxicity check, usually on the fifth day, unless a day is given; later deaths do not show. Schedule codes are those of the source, read here as Q, the interval in days (D) or hours (H), X, the number of doses. Some entries were tested several times; the values are given in rising order. Some schedule codes hold Z or #, which are not explained here. For survival time, this PubChem deposit counts one and a half times the control or more as active, and values a quarter to a half above the control carry no call in these data; other NCI protocols may use other cut-offs. Some T/C values are followed by the survivors on the day toxicity was checked, most often the fifth; where none is given, no animal had died by that day.

For the experiment, the system named is L1210 leukemia ip in BDF1 mice, survival T/C. In words: NCI In Vivo Anticancer Drug Screen. Data for tumor model L1210 Leukemia (intraperitoneal) in B6D2F1 (BDF1) mice. The conditions noted are these: T/C endpoint: mean survival time, higher T/C = longer survival.
Setting [1] is: dose: 100.0 mg/kg/injection, schedule: Q01DX009 (ip), vehicle: saline.
Setting [2] is: dose: 200.0 mg/kg/injection, schedule: Q01DX009 (ip), vehicle: saline.
The mark [3] stands for this setting: dose: 400.0 mg/kg/injection, schedule: Q04DX003 (ip), vehicle: saline.
Setting [4] is: dose: 50.0 mg/kg/injection, schedule: Q01DX009 (ip), vehicle: saline.
The mark [5] stands for this setting: dose: 200.0 mg/kg/injection, schedule: Q01DX009 (ip), vehicle: saline with Tween-80.
Where [6] appears, read: dose: 25.0 mg/kg/injection, schedule: Q01DX009 (ip), vehicle: saline.

Take `CN(C)Cc1ccnc(Cl)n1`: the survivor count reads like this: (dose: 4.0 mg/kg/injection, schedule: Q01DX Z (ip), vehicle: methylcellulose (MC)) 0 of 6; (dose: 8.0 mg/kg/injection, schedule: Q01DX Z (ip), vehicle: methylcellulose (MC)) 0 of 6; (dose: 16.0 mg/kg/injection, schedule: Q01DX Z (ip), vehicle: methylcellulose (MC)) 0 of 6; (dose: 31.0 mg/kg/injection, schedule: Q01DX Z (ip), vehicle: methylcellulose (MC)) 0 of 6; (dose: 62.0 mg/kg/injection, schedule: Q01DX Z (ip), vehicle: methylcellulose (MC)) 0 of 6; (dose: 125.0 mg/kg/injection, schedule: Q01DX Z (ip), vehicle: methylcellulose (MC)) 0 of 6.
For `CC(C)CNC(=O)CCc1ccc(N(CCCl)CCCl)cc1`, the survivor count (dose: 200.0 mg/kg/injection, schedule: Q01DX009 (ip), vehicle: Klucel (hydroxypropylcellulose) (HPC)) is 3 of 6.
Consider `BrCCOC1CCCCO1` (configuration not stated), for which the survivor count (dose: 400.0 mg/kg/injection, schedule: Q01DX005 (ip), vehicle: saline) is on record as 0 of 4.
Take `O=C(N/N=C/C=C/c1ccccc1)[C@H](O)[C@@H](O)C(=O)N/N=C/C=C/c1ccccc1`: the survivor count (dose: 200.0 mg/kg/injection, schedule: Q01DX009 (ip), vehicle: acetone) is given as 6 of 6.
Regarding `CN(C)CCOc1ccc(Cl)cc1Cc1ccccc1`, the survivor count under setting [1] is reported as 6 of 6; the survivor count (dose: 100.0 mg/kg/injection, schedule: Q04DX003 (ip), vehicle: saline) is given as 3 of 4; the survivor count under setting [2] is on record as 0 of 6; the survivor count (dose: 200.0 mg/kg/injection, schedule: Q04DX003 (ip), vehicle: saline) is reported as 0 of 4; the survivor count under setting [3] is 0 of 4.
`CCCCCCCCCCCC[N+](C)(C)CCCCCCCCCCCC`: the survivor count is, setting by setting: (dose: 23.0 mg/kg/injection, schedule: Q01DX009 (ip), vehicle: saline) 4 of 6; (dose: 35.0 mg/kg/injection, schedule: Q01DX009 (ip), vehicle: saline) 0 of 6; under setting [4], 0 of 6.
For `O=C(O)c1ccccc1C(=O)Nc1ccc(F)cc1`, where the note is “dose: 100.0 mg/kg/injection, schedule: Q01DX001 (ip), vehicle: saline”, the survivor count is 6 of 6.
For `Cc1ccc(Cl)cc1NC(=O)Nc1cc(C(C)C)ccc1C`, under “dose: 400.0 mg/kg/injection, schedule: Q01DX009 (ip), vehicle: saline with Tween-80”, the survivor count was 5 of 6.
`COc1ccc(CNCC(=O)OCc2ccccc2)cc1`: the survivor count runs as follows: under setting [5], 4 of 6; (dose: 400.0 mg/kg/injection, schedule: Q04DX003 (ip), vehicle: saline with Tween-80) 3 of 6.
`N=C(N)c1ncn(C2CCCC2)c1N`: the survivor count (dose: 300.0 mg/kg/injection, schedule: Q01DX001 (ip), vehicle: saline) is 0 of 6.
Consider `COc1ccc(N2C(=O)OC3(CCNCC3)C2=O)cc1`, for which the survivor count runs as follows: (dose: 100.0 mg/kg/injection, schedule: Q01DX001 (ip), vehicle: carboxymethylcellulose (CMC)) 2 of 6; (dose: 200.0 mg/kg/injection, schedule: Q01DX001 (ip), vehicle: carboxymethylcellulose (CMC)) 0 of 6; (dose: 400.0 mg/kg/injection, schedule: Q01DX001 (ip), vehicle: carboxymethylcellulose (CMC)) 0 of 6.
With `Nc1nc(N)c2nc(CBr)cnc2n1`, the survivor count under setting [4] was 2 of 3, the survivor count under setting [1] is reported as 0 of 3 and the survivor count under setting [2] is given as 0 of 3.
As to `CN(C)C(N1CC1)N1CC1`, the survivor count is on record as 0 of 3 (dose: 100.0 mg/kg/injection, schedule: Q04DX002 (ip), vehicle: saline); 0 of 3 (dose: 200.0 mg/kg/injection, schedule: Q04DX002 (ip), vehicle: saline); 0 of 3 (dose: 400.0 mg/kg/injection, schedule: Q04DX002 (ip), vehicle: saline).
For the molecule `O=C(O)C1(C(=O)O)C=CCCC1`, under “dose: 400.0 mg/kg/injection, schedule: Q01DX009 (ip), vehicle: saline + alcohol”, the survivor count was 2 of 6.
With `O=C(Nc1cccc2ccccc12)O/N=C/c1ccccn1`, under setting [5], the survivor count is 6 of 6.
Take `CCOC(=O)/C=C(\C)N(C(=O)N(CCCl)N=O)c1ccccc1`: the T/C was 137 % of control (dose: 0.25 mg/kg/injection, schedule: Q01DX009 (ip), vehicle: Klucel (hydroxypropylcellulose) (HPC)); 132 % of control (dose: 0.7 mg/kg/injection, schedule: Q01DX009 (ip), vehicle: carboxymethylcellulose (CMC)); 143 % of control (dose: 1.5 mg/kg/injection, schedule: Q01DX009 (ip), vehicle: carboxymethylcellulose (CMC)); 147 % of control (dose: 3.0 mg/kg/injection, schedule: Q01DX009 (ip), vehicle: carboxymethylcellulose (CMC)); 141 % of control (dose: 4.0 mg/kg/injection, schedule: Q01DX001 (ip), vehicle: carboxymethylcellulose (CMC)); 143 % of control (dose: 8.0 mg/kg/injection, schedule: Q01DX001 (ip), vehicle: carboxymethylcellulose (CMC)). The T/C runs as follows: (dose: 13.0 mg/kg/injection, schedule: Q01DX001 (ip), vehicle: carboxymethylcellulose (CMC)) 134 % of control; (dose: 20.0 mg/kg/injection, schedule: Q01DX001 (ip), vehicle: carboxymethylcellulose (CMC)) 146 % of control. For the same molecule, the survivor count is reported as 5 of 6 (dose: 20.0 mg/kg/injection, schedule: Q01DX009 (ip), vehicle: Klucel (hydroxypropylcellulose) (HPC)); 6 of 6 (dose: 45.0 mg/kg/injection, schedule: Q01DX009 (ip), vehicle: Klucel (hydroxypropylcellulose) (HPC)); 3 of 6 (dose: 75.0 mg/kg/injection, schedule: Q01DX001 (ip), vehicle: carboxymethylcellulose (CMC)); 0 of 6 (dose: 150.0 mg/kg/injection, schedule: Q01DX001 (ip), vehicle: carboxymethylcellulose (CMC)); 0 of 6 (dose: 300.0 mg/kg/injection, schedule: Q01DX001 (ip), vehicle: carboxymethylcellulose (CMC)).
`CS(C)=O.CS(C)=O.CS(C)=O.[Cl][Rh]([Cl])[Cl]`: the survivor count is, setting by setting: (dose: 6.25 mg/kg/injection, schedule: Q01DX009 (ip), vehicle: saline) 6 of 6; (dose: 12.5 mg/kg/injection, schedule: Q01DX009 (ip), vehicle: saline) 6 of 6; under setting [6], 5 of 6; under setting [4], 6 of 6; under setting [1], 0 of 6 and 1 of 6; under setting [2], 0 of 6. Further, the survivor count is listed as 0 of 6 (dose: 400.0 mg/kg/injection, schedule: Q01DX009 (ip), vehicle: saline) and 1 of 6 under setting [3]. Moreover, the T/C is 106, 119, 127 % of control [5 of 6 alive] under setting [6] and 95 [5 of 6 alive], 103 [5 of 6 alive], 105 % of control [4 of 6 alive] under setting [4].
On to `C(=C(c1ccccc1)c1ccccc1)C1=NCCS1`, for which, where the note is “dose: 200.0 mg/kg/injection, schedule: Q03DX002 (ip), vehicle: saline with Tween-80”, the survivor count is 1 of 3.
Consider `c1ccc(N=NNc2ccccc2)cc1`, for which the survivor count runs as follows: (dose: 50.0 mg/kg/injection, schedule: Q01DX009 (ip), vehicle: saline with Tween-80) 5 of 6; (dose: 100.0 mg/kg/injection, schedule: Q01DX009 (ip), vehicle: saline with Tween-80) 3 of 6; under setting [5], 3 of 6.
Take `O=C1NC2(c3ccccc3)CCCCC2O1` (configuration not stated): the survivor count (dose: 150.0 mg/kg/injection, schedule: Q01DX001 (ip), vehicle: acetone) is 5 of 6.
Consider `N=c1c2ncn(C3CCCC3)c2ncn1O`, for which the survivor count (dose: 400.0 mg/kg/injection, schedule: Q01DX001 (ip), vehicle: saline with Tween-80) is on record as 0 of 6.
